# Tested on: PBMC
# Assay: ELISPOT (IFNγ, IL-5, IL-10, IL-17, IL-21) of PBMC expanded 14 days with Bla g extract, then stimulated with peptides or peptide pools
# Format: cell-based, human
# Set-up: key to Average Magnitude of Response: spot forming cells (SFC) per 10^6 PBMC; Response Rate per Subject: unit not given here
# Settings: non-redundant epitopes; sensitized donors
# Description: PBMC Isolation and Cell Cultures: PBMC (peripheral blood mononuclear cells) were isolated from 450 mL (one unit) of blood by density gradient centrifugation as described and cryopreserved. For in vitro expansion of PBMC for peptide screening, cells were cultured in RPMI1640 (Omega Scientific)+5% human AB serum (Gemini Bioscience), GlutaMAX (Gibco), and penicillin/streptomycin (Omega Scientific) at 2×10^6 per mL, stimulated with 10 ug/mL Bla g extract (Greer), and incubated at 37° C. in 5% CO2. Every three days, IL-2 and IL-7 (10 U/mL) were added to the cultures. Cells were harvested for peptide screening at day 14.
# ELISPOT Assays: Production of IFNγ, IL-5, IL-17, IL-10, and IL-21 (as representative of TH1, TH2, TH17, TR1, and […], respectively) in response to peptide stimulation was measured by ELISPOT as described previously. […]
# To assess T cell reactivity, we utilized a strategy applied to the definition of epitopes from various allergen sources^15,16 utilizing in vitro stimulation with allergen extracts. […] As readout, we utilized ELISPOT assays specific for IL-5, IFNγ, IL-10, IL-17 and IL-21, chosen as representative of TH2, TH1, TR1, TH17 and TFH reactivity, respectively.
sequence,measurement,value
DLVANQPNLKALREK (listed as Blattella germanica),Average Magnitude of Response,91.0
same,Response Rate per Subject,7.1

# From US11505581B2, “Antigens and T cell epitopes from cockroach and methods of making and using same” (La Jolla Institute for Allergy and Immunology, priority 2015, dated 2022)
